Values from PubChem BioAssay AID720505 (Drosophila RNAi Screening Center, 2013)
The deposit covers about 20,000 reagents; below is a random part of those with a known target gene and a result. Over the whole deposit, about 2,100 (10%) are marked active. 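Raw plate signals without normalisation; calls rest on control-based scores that were not deposited; replicate 2 separates called from uncalled poorly.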 A number with no mark means an inactive call. The numbers tell different reagents against one gene apart. Not given: the amount of reagent, the time to read-out.

Aim: 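Genes needed for store-operated calcium entry in fly cells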 (primary screen)
Cells: Drosophila S2R+ cells
Knock-down reagent: long dsRNA against Drosophila genes
Challenge: thapsigargin (2 µM) in calcium-free buffer to empty internal stores, then 2 mM calcium added back
Detection: 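Stores emptied by 2 µM thapsigargin without calcium, then 2 mM calcium re-added; fluo-4 fluorescence followed by FLIPR in 384-well plates, per-well averaged endpoint, raw; two screen passes, some wells retested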
Reading the numbers: calcium signal and retest calcium signal: higher = more calcium entry after store depletion
Hit rule: 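Knock-downs counted as hits when calcium entry dropped relative to STIM1 positive and Rho1 negative controls present on each plate; roughly 1500 genes called, with reductions of differing size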
Calls: active = called as lowering calcium entry; inactive = not called

| gene | reagent | calcium signal, replicate 1 | calcium signal, replicate 2 | retest calcium signal, replicate 1 | retest calcium signal, replicate 2 |
| --- | --- | --- | --- | --- | --- |
| AIMP2 (aaRS-interacting multifunctional protein 2) | 1 | 138 | 87.8 | – | – |
| Obp85a (Odorant-binding protein 85a) | 1 | 117 | 120 | – | – |
| Ns4 (Nucleostemin 4) | 1 | 74.1 | 79.4 | – | – |
| Cul4 (Cullin 4) | 1 | 129 | 147 | – | – |
| Atg4a (Autophagy-related 4a) | 1 | 141 | 326 | – | – |
| CG13630 | 1 | 232 | 266 | – | – |
| CG17778 | 1 | 63.9 (active) | 75.1 | – | – |
| CG17376 | 1 | 106 | 78.1 | – | – |
| Gr58b (Gustatory receptor 58b) | 1 | 160 | 104 | – | – |
| mbm (mushroom body miniature) | 1 | 85.3 | 189 | – | – |
| CG17807 | 1 | 145 | 154 | – | – |
| CG14780 | 1 | 68.3 | 139 | – | – |
| CG15870 | 1 | 141 | 148 | – | – |
| Ref2 (RNA and export factor binding protein 2) | 1 | 73.7 (active) | 126 | – | – |
| Tango11 (Transport and Golgi organization 11) | 1 | 2406 (active) | 97.1 | – | – |
| Tango11 (Transport and Golgi organization 11) | 2 | 79 | 4981 | – | – |
| Ugt37A3 (UDP-glycosyltransferase family 37 member A3) | 1 | 183 | 90.2 | – | – |
| janA (janus A) | 1 | 85.1 (active) | 202 | – | – |
| mah (mahogany) | 1 | 175 | 131 | – | – |
| Pld3 (Phospholipase D family member 3) | 1 | 91.8 | 78 | – | – |
| Gyc32E (Guanylyl cyclase at 32E) | 1 | 241 | 121 | – | – |
| GluClalpha (Glutamate-gated chloride channel subunit alpha) | 1 | 227 | 143 | – | – |
| CG17715 | 1 | 80.4 (active) | 84.4 | – | – |
| CG31680 | 1 | 69.4 | 194 | – | – |
| Rh5 (Rhodopsin 5) | 1 | 93.6 | 86.9 | – | – |
| tup (tailup) | 1 | 102 | 102 | – | – |
| Flo2 (Flotillin 2) | 1 | 75.3 | 102 | – | – |
| Flo2 (Flotillin 2) | 2 | 91.9 | 107 | – | – |
| E(var)3-9 (Enhancer of variegation 3-9) | 1 | 98.7 | 142 | – | – |
| E(var)3-9 (Enhancer of variegation 3-9) | 2 | 101 | 132 | – | – |
| SdhA (Succinate dehydrogenase, subunit A (flavoprotein)) | 1 | 190 | 101 | – | – |
| CG15047 | 1 | 94.6 | 136 | 8333 | 140 |
| CG15047 | 2 | 153 | 107 | – | – |
| form3 (formin 3) | 1 | 99.5 | 81.8 | – | – |
| form3 (formin 3) | 2 | 139 | 77.2 | – | – |
| form3 (formin 3) | 3 | 109 | 84.9 | – | – |
| eEF1alpha1 (eukaryotic translation elongation factor 1 alpha 1) | 1 | 104 | 228 | – | – |
| Ppr-Y | 1 | 123 | 10480 | – | – |
| Ptpmeg2 (Protein tyrosine phosphatase Meg2) | 1 | 64.6 (active) | 92 | – | – |
| Ptpmeg2 (Protein tyrosine phosphatase Meg2) | 2 | 74.2 (active) | 89.8 | – | – |
| Ptpmeg2 (Protein tyrosine phosphatase Meg2) | 3 | 88.2 | 133 | – | – |
| Myo28B1 (Myosin 28B1) | 1 | 67.5 (active) | 174 | – | – |
| Or59c (Odorant receptor 59c) | 1 | 127 | 166 | – | – |
| RabGGTb (Rab geranylgeranyltransferase subunit beta) | 1 | 117 | 228 | – | – |
| CG14853 | 1 | 163 | 169 | 6948 | 128 |
| CG14853 | 2 | 173 | 79.1 | – | – |
| cathD (cathepsin D) | 1 | 85.1 | 88.7 | – | – |
| RSG7 (Regulator of G-protein signaling 7) | 1 | 93.9 | 165 | – | – |
| RSG7 (Regulator of G-protein signaling 7) | 2 | 103 | 74.7 | – | – |
| Exo70 (Exocyst 70) | 1 | 71.3 | 77.5 | – | – |
| CR31824 (pseudo) | 1 | 161 | 113 | – | – |
| Vrp1 (Verprolin 1) | 1 | 108 | 93.7 | – | – |
| CG11666 | 1 | 55.1 (active) | 191 | – | – |
| Dsor1 (Downstream of raf1) | 1 | 90.4 | 103 | – | – |
| CG40191 | 1 | 61.6 | 105 | – | – |
| CG32161 | 1 | 71.9 | 105 | – | – |

4 entries from above, reduced to “calcium signal, replicate 2”.
Atg4a (Autophagy-related 4a)	326
CG13630	266
CG17778	75.1 (active)
CG17376	78.1
